Out of some 390,000 compounds screened, about 610 (0.16%) were called active. The shares of active, inactive and inconclusive entries below differ from those in the screen. Calls follow the shape of the dose curve; as a rule, active = well fitted inhibition curve with a large enough effect; inconclusive = small, poorly fitted or top-dose-only effect, or effect the other way, or another doubt; inactive = no such curve, though single readings can be large or run the other way. Potencies of inconclusive entries are doubtful fits and often do not repeat.
assay: Nrf2 qHTS screen for inhibitors: counterscreen for cytotoxicity; settings: A549 ARE-Fluc cells, CellTiter-Fluor viability, 18-24 h; activity change, negative = cytotoxicity: at 46 µM (top of the series)
Procedure, shortened: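 A549 ARE_Fluc cells in 5% FBS OPTI-MEM were exposed to compounds in concentration-response for 18-24 h at 37 deg C. Viability was read by CellTiter-Fluor fluorescence (Ex 405/Em 525) after 30 min, before the luciferase read.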
% is scaled to controls: 0 for no effect and ±100 for the full control effect; potency is read from the fitted curve at half-maximal effect.

Structure (SMILES) | Potency | activity change, negative = cytotoxicity
CCN(CC)c1ccc(C(=C2C=CC(=[N+](CC)CC)C=C2)c2ccc(S(=O)(=O)O)cc2S(=O)(=O)[O-])cc1 | inconclusive: 29.1 µM [falling, single point] | 
COc1ccccc1Nc1c2ccccc2nc2ccccc12 | inconclusive: 20.6 µM [falling, partial curve, poor fit] | 
CCSC1=NC(C)(C)C=C(/C=C/c2ccc(Cl)cc2Cl)N1 |  | inactive: 11.1%
CCOCCCNC(=O)CCn1nc(-c2ccc(Cl)cc2)ccc1=O |  | inactive: 0%
CN(C)CCCNC(=O)c1ccc(-c2nc(-c3ccc(Cl)cc3)cs2)cc1 | inconclusive: 18.4 µM [activator, partial curve, poor fit] | 
CCSc1nc(-c2ccco2)ccc1C#N |  | inactive: -11.4%
CCc1cc(C(=O)NC2CCCN(Cc3ccccc3F)C2)n(C)n1 (stereo unspecified) |  | inactive: -8.8%
CC(C)C(=O)NNS(=O)(=O)c1ccccc1[N+](=O)[O-] |  | inactive: 0.601%
O=C(/C=C/c1ccccc1)NC(=S)Nc1ccc(N2CCOCC2)cc1 |  | inactive: -0.654%
COc1cc(C(=O)O[C@H]2C/C(C)=C/CC[C@@]3(C)O[C@@H]3[C@H](O)[C@@H]2C(C)C)cc(OC)c1OC | inconclusive: 16.4 µM [falling, partial curve, poor fit] | 
CC(=O)N1N=C(c2ccc(C)cc2)OC1c1ccc(C(C)C)cc1 (stereo unspecified) | inconclusive: 32.6 µM [activator, single point] | 
C=CCn1c(CNC(=O)c2cccs2)nnc1SCc1ccc(Cl)cc1Cl | inconclusive: 23.1 µM [falling, partial curve, poor fit] | 
CCOC(=O)c1c(N)sc(C(O)(C(F)(F)F)C(F)(F)F)c1-c1ccc(Cl)cc1 | inconclusive: 29.1 µM [falling, single point] | 
O=c1ccc(OCCOc2ccccc2)nn1-c1ccccc1 | inconclusive: 6.51 µM [activator, partial curve, poor fit] | 
OC(COc1ccc(CNCCc2ccc(C(F)(F)F)cc2)cc1)CN1CCCCC1 (stereo unspecified) | inconclusive: 25.9 µM [falling, single point] | 
Cc1nc(SCC(=O)N(C)C2CCCCC2)[nH]c(=O)c1Cc1ccccc1 | inconclusive: 20.6 µM [activator, partial curve, poor fit] | 
CC(C)(C)[C@H](N)C(=O)N[C@H]1CCC2C3CC=C4C[C@@H](O)CC[C@]4(C)C3CC[C@@]21C (stereo partly specified) | inconclusive: 29.1 µM [falling, single point] | 
O=C(O)c1ccc(N2CCCCS2(=O)=O)cc1 |  | inactive: 4.73%
OC(COc1ccc2cc(Br)ccc2c1)CN1CCCC1 (stereo unspecified) | inconclusive: 1.3 µM [activator, partial curve, poor fit] | 
Nc1ccc(-c2nc3ccc(-c4nc5ccccc5o4)cc3[nH]2)cc1 | inconclusive: 32.6 µM [falling, partial curve, poor fit] | 
CC(=O)Oc1ccc(-c2csc(Nc3cccc(C)n3)n2)cc1 | inconclusive: 32.6 µM [falling, partial curve, poor fit] | 
O=C(CSc1ccccc1)NCC1(N2CCCCC2)CCCCC1 |  | inactive: -22.2%

2 entries drawn at random from the list so far, as already listed:
Structure (SMILES) | Potency | activity change, negative = cytotoxicity
CC(C)C(=O)NNS(=O)(=O)c1ccccc1[N+](=O)[O-] |  | inactive: 0.601%
OC(COc1ccc(CNCCc2ccc(C(F)(F)F)cc2)cc1)CN1CCCCC1 (stereo unspecified) | inconclusive: 25.9 µM [falling, single point] | 

Next part:

Structure (SMILES) | Potency | activity change, negative = cytotoxicity
COc1cc2c(cc1NC(=O)CSc1nc3ccccc3[nH]1)oc1ccccc12 | inconclusive: 29.1 µM [falling, single point] | 
COCCCNC(=O)c1cc(C(=O)c2c(-c3c(Cl)cccc3Cl)noc2C)c[nH]1 | inconclusive: 32.6 µM [falling, partial curve, poor fit] | 
O=C1OC(NC(=O)c2ccccc2)C(n2cc(CO)nn2)=C1Cl (stereo unspecified) |  | inactive: -5.48%
CCOC(=O)c1ccc(NC(=O)CCc2c(C)nc3ncnn3c2C)cc1 | inconclusive: 32.6 µM [activator, partial curve, poor fit] | 
COc1ccc2c(C(=O)NCc3ccc4c(c3)OCO4)c(-c3ccc(S(C)(=O)=O)cc3)sc2c1 | inconclusive: 16.4 µM [falling, single point] | 
CCOC(=O)C1(CCOc2ccccc2)CCN(C(=O)c2ccc(-n3cccn3)cc2)CC1 | inconclusive: 20.6 µM [falling, single point] | 
Cc1ccccc1C1CC(=O)Nc2ccc3ccccc3c21 (stereo unspecified) |  | inactive: -2.64%
COc1ccc(Cn2ccn(Cc3cccc(OC)c3)c(=O)c2=O)cc1 | inconclusive: 20.6 µM [falling, partial curve] | 
COc1ccc(NC(=O)CNc2cccc(S(=O)(=O)N3CCCCCC3)c2)c([N+](=O)[O-])c1 | inconclusive: 32.6 µM [falling, partial curve, poor fit] | 
COc1ccc(-c2noc(-c3ccccc3C(=O)NCc3ccco3)n2)cc1 |  | inactive: 10.5%
CC(C)(C(=O)Nc1nccs1)c1ccccc1 | inconclusive: 25.9 µM [activator, partial curve, poor fit] | 
CN(C)CCNC(=O)c1cccc2nc3cccc(F)c3nc12 | active: 10.3 µM | 
Cc1ccc(Cl)cc1N1CCN(C(=O)c2ccc3c(c2)N(Cc2ccc(F)cc2)CCS3)CC1 |  | inactive: -3.33%
O=C(O)c1ccc(NCc2cccnc2)c([N+](=O)[O-])c1 | inconclusive: 20.6 µM [falling, single point] | 
COc1cc2[nH]c(=O)c(C(=O)NCCCN3CCCCC3)c(O)c2cc1OC |  | inactive: 9.08%
CCN(CC)c1ccc2cc(C(N)=O)/c(=N\NC(=O)c3ccncc3)oc2c1 | inconclusive: 20.6 µM [falling, single point] | 
c1ccc2c(Nc3ccc(N4CCOCC4)cc3)nc(N3CCOCC3)nc2c1 | inconclusive: 29.1 µM [activator, single point] | 
CC(C)Cn1c(=O)c(C(=O)Nc2ccncc2)c(O)c2ccccc21 | inconclusive: 11.6 µM [falling, single point] | 
O=[N+]([O-])c1cc([N+](=O)[O-])c(N2CCCCCC2)cc1NCCO | inconclusive: 29.1 µM [falling, single point] | 
Cc1cccc(C(=O)Oc2ccc(/C=N/NC(=O)Cc3ccc([N+](=O)[O-])cc3)cc2)c1 | inconclusive: 7.31 µM [activator, partial curve, poor fit] | 
CCOC(=O)Nc1ccc2c(c1)N(C(=O)N1CCN(C)CC1)c1ccccc1S2 |  | inactive: -11.1%
O=c1oc2c(CN3CCN(CCO)CC3)c(O)ccc2cc1-c1ccccc1 | inconclusive: 23.1 µM [activator, partial curve] | 

Compounds above that contain a CF3 group, in the order listed:
Structure (SMILES) | Potency | activity change, negative = cytotoxicity
CCOC(=O)c1c(N)sc(C(O)(C(F)(F)F)C(F)(F)F)c1-c1ccc(Cl)cc1 | inconclusive: 29.1 µM [falling, single point] | 
OC(COc1ccc(CNCCc2ccc(C(F)(F)F)cc2)cc1)CN1CCCCC1 (stereo unspecified) | inconclusive: 25.9 µM [falling, single point] | 

(further entries)

Structure (SMILES) | Potency | activity change, negative = cytotoxicity
CCc1n[nH]c2c1C(=O)CC(C)(C)C2 |  | inactive: 6.04%
O=C1/C(=C/c2ccccc2[N+](=O)[O-])COc2ccccc21 | inconclusive: 20.6 µM [falling, single point] | 
CC(=O)c1ccc(OCCCC(=O)N2CCN(S(=O)(=O)c3cc(C)ccc3C)CC2)cc1 |  | inactive: 1.46%
COc1ccccc1N1CCN(C(=O)CCC(=O)N2CCN(c3ccc(F)cc3)CC2)CC1 |  | inactive: -5.77%
C=CCNc1nc2ccccc2nc1NS(=O)(=O)c1ccc(F)cc1 | inconclusive: 20.6 µM [falling, partial curve, poor fit] | 
Cc1cccn2c(=O)c3cc(C(=O)NC(C)c4ccccc4)c(=N)n(CCCO)c3nc12 (stereo unspecified) | inconclusive: 10.3 µM [activator, partial curve, poor fit] | 
COc1cc(C(=O)N/N=C(\C)c2ccccn2)cc(OC)c1OC | inconclusive: 1.84 µM [falling, full curve, poor fit] | 
c1cc2c(cc1C1=NNC(=NC3CC3)SC1)OCCO2 |  | inactive: 3.22%
COC(=O)c1ccc(C2C(C(=O)Nc3ccccc3)=C(C)Nc3nc4ccccc4n32)cc1 (stereo unspecified) | inconclusive: 32.6 µM [falling, partial curve, poor fit] | 
COCCn1nnnc1C(C(C)C)N(Cc1cccnc1)Cc1cc2cc(OC)ccc2[nH]c1=O (stereo unspecified) |  | inactive: 0.453%
CC1CC(C)CN(c2ccc([N+](=O)[O-])nc2)C1 (stereo unspecified) | inconclusive: 16.4 µM [falling, partial curve, poor fit] | 
CCN(CC)c1ccc(/C=N/Nc2nc(C)cc(=O)[nH]2)c(O)c1 | inconclusive: 23.1 µM [falling, single point] | 
CCCc1cc(=O)oc2c3c(cc(OCC(=O)NCc4ccncc4)c12)OC(C)(C)CC3 | inconclusive: 16.4 µM [falling, partial curve, poor fit] | 
CC1=C(C(=O)Nc2ccccc2)C(c2cccn2C)n2ncnc2N1 (stereo unspecified) |  | inactive: 7.22%
COc1cccc(C(=O)Nc2c(F)c(F)c(F)c(F)c2F)c1 | inconclusive: 23.1 µM [falling, partial curve, poor fit] | 
O=C(/C=C/c1ccc2c(c1)OCO2)c1ccccn1 |  | inactive: 1.01%
CCC(=O)NC(c1ccco1)c1cc([N+](=O)[O-])c2cccnc2c1O (stereo unspecified) | inconclusive: 29.1 µM [falling, single point] | 
CSCC[C@H](N)C(=O)N1CCC(C(=O)N[C@H](C)C(=O)Nc2ccc(C(C)C)cc2)CC1 | inconclusive: 18.4 µM [falling, partial curve, poor fit] | 
CN(CC(=O)Nc1cccc(F)c1)C(=O)CNS(=O)(=O)c1ccc(N(C)C)c([N+](=O)[O-])c1 | inconclusive: 10.3 µM [falling, partial curve] | 
Cc1nnc(N2CCCC(C(=O)NCCc3ccc(Cl)cc3)C2)c2nn(-c3ccccc3)c(C)c12 (stereo unspecified) | inconclusive: 23.1 µM [falling, partial curve] | 
Cc1ccc(C(=O)Nc2ccccc2SCC2CSc3nc4ccccc4c(=O)n32)cc1 (stereo unspecified) | inconclusive: 16.4 µM [falling, partial curve] | 
CCn1cc(C(=O)N2CCN(c3ccccc3F)CC2)c(=O)c2cc(S(=O)(=O)N(C)C)ccc21 | inconclusive: 5.8 µM [activator, partial curve, poor fit] | 

Reference: PubChem BioAssay AID504648 (National Center for Advancing Translational Sciences (NCATS), 2011)
